For part of these data: For at least one compound, name, drawing or mass did not settle the structure. Some results were stated once for a whole list of compounds, not compound by compound.
What was measured:
Format in all cases: cell-based, human
[1] = test system: RIVA cells; experiment: Real Time Glo viability screen, Betalutin with PARP or cell cycle kinase inhibitors (Examples 4, 7); details: highest tested concentration 100 nM
Description: (§1) DLBCL cell lines U2932 and RIVA were maintained in RPMI 1640-GlutaMAX medium (Gibco) supplemented with 15% fetal bovine serum (Biowest) and 1% penicillin-streptomycin (Gibco) at 37° C. in a humidified atmosphere containing 5% CO2. Cells were split twice a week 1:7 and diluted 2-4 days before start of the experiment, to ensure they are in exponential growth at the beginning of the experiment.
(§2) Cells were treated in 6-well plates without shaking for 18 h with Betalutin at a final concentration of 1 μg/ml for U2932 and 0.5 μg/ml for RIVA. After treatment, PBS was added to the cells, and the cells pelleted. […]
(§3) Cells density measurements were performed the day before seeding. […] Cells were incubated with the reaction mix for 1 h at 37° C. before the first measurement of luminescence. […] A Tecan SPARK 10M plate reader (Tecan, SUI) was used to measure luminescence, with the integration time set to 1 sec. […]
(§4) Candidate hits were identified using the Bliss Independence test for synergy. […] Furthermore, to get a measure of how big the well-to-well variation was, we calculated the standard deviation for the effect of Betalutin alone in the 48 control wells on each plate: (STDEV)Fb=(RLUBetalutin/RLUcontrol)−(averageRLUBetalutin/averageRLUcontrol). Drugs with a value (Diff)Fab#two times higher than the standard deviation of Betalutin treated controls, (STDEV)Fb, were scored as hits. […]

[2] = test system: U-2932 cells; experiment: Real Time Glo viability screen and validation, Betalutin with PARP or cell cycle kinase inhibitors (Examples 4, 7); details: U-2932, highest tested concentration 1 μM
Description: as §1, §2, §3, §4

[3] = test system: U2932 cells; experiment: Alamar Blue cytotoxicity study; details: U2932, Humalutin 0.5 or 1 μg/ml, 72 h
Description: Cells were treated with either Humalutin, olaparib or a combination of both and seeded into 96 well-plates. At each time point after treatment, cells were incubated with Alamar Blue (Thermo Fisher, DALL1100) for 4 hours and fluorescence measurements were performed using a multiplate reader Fluoroskan ascent FL to assess cell proliferation and viability. All experiments were done in duplicates using 2 samples in each experiment. Data were normalized to the untreated controls.
Cells were incubated with 0.25, 0.5, 1, 2.5 or 5 μg/ml of Humalutin in cell culture flasks and incubated at 37° C./5% CO2. After 18-20 hours cells were washed and resuspended in fresh medium. Cell bound activity after washing was measured using a calibrated gamma detector (Cobra II auto-gamma detector, Packard Instrument Company, Meriden, Conn., USA). Cell concentration and viability was also measured after washing using Guava ViaCount Cell Dispersal Reagent for Flow Cytometry (Merck GaA, Darmstadt, Germany) and measured in a Guava EasyCyte 12HT (Merck KGaA, Darmstadt, Germany) to determine how well the cells survived the incubation. Cells were seeded in 96 well plates.
Cells were seeded in 96 well plates pre-coated with from 1 to 100 μM olaparib in 0.2 ml medium and incubated at 37° C./5% CO2 for 72 hours before the cytotoxic effect was measured using alamar blue cell viability assay. […]

| SMILES | Block of proliferation, drug alone [1] | Block of proliferation, drug alone [2] | Synergism grade by Combination Index, combination with Humalutin [3] |
| --- | --- | --- | --- |
| C[C@@H](Oc1cc(-n2cnc3ccc(CN4CCN(C)CC4)cc32)sc1C(N)=O)c1ccccc1C(F)(F)F [GSK461364] | more than 90% | more than 90% | – |
| CC1(C)CCC(CN2CCN(c3ccc(C(=O)NS(=O)(=O)c4ccc(NCC5CCOCC5)c([N+](=O)[O-])c4)c(Oc4cnc5[nH]ccc5c4)c3)CC2)=C(c2ccc(Cl)cc2)C1 [venetoclax] | – | – | strong synergy |

— patent US20210106703A1, “RADIOIMMUNOCONJUGATES IN COMBINATION WITH OTHER DRUGS AS TREATMENT AGAINST NHL” (Nordic Nanovector ASA, priority 2017, published 2021)
